Test results from article PMC3229523, “Identification of Lactoferricin B Intracellular Targets Using an Escherichia coli Proteome Chip” (PLoS ONE, 2011).
No constants are given. Whether binding was seen depends on the method and setting. Binding can be weak; no strength is given.

Amino acid sequences for entries named in this document (tags omitted). A change or cut given only in a name is not applied to a line headed by its entry. Residues count along the entry.
UniProt P09549: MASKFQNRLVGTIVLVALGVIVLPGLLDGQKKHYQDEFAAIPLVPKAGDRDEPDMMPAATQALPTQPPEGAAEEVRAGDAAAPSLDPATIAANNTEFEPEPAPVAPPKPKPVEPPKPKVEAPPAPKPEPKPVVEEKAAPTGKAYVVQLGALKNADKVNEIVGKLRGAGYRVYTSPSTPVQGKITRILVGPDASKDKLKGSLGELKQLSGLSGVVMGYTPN
UniProt P24627, residues 36-60: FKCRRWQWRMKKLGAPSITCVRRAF

Target: DedD (E. coli K-12) (UniProt P09549)
Test: peptide or protein array; E. coli proteome chip: purified His-tagged proteins printed in duplicate on Fullmoon slides, blocked with 1% BSA; 10 nM N-terminal biotinylated LfcinB with 1% BSA, room temperature, 1 h; detected with DyLight 649-labeled streptavidin, ratio to DyLight 549-labeled anti-His antibody; ProCAT normalisation, local cut-off; triplicate chips; both purified

N-terminal biotinylated Lactoferricin B (from UniProt P24627 36-60) (peptide)
binding: binds
